{
  "sequences": {"note": "The chains behind the UniProt entries cited, without tags or fusion partners. Residues count along the entry.", "UniProt P51784": "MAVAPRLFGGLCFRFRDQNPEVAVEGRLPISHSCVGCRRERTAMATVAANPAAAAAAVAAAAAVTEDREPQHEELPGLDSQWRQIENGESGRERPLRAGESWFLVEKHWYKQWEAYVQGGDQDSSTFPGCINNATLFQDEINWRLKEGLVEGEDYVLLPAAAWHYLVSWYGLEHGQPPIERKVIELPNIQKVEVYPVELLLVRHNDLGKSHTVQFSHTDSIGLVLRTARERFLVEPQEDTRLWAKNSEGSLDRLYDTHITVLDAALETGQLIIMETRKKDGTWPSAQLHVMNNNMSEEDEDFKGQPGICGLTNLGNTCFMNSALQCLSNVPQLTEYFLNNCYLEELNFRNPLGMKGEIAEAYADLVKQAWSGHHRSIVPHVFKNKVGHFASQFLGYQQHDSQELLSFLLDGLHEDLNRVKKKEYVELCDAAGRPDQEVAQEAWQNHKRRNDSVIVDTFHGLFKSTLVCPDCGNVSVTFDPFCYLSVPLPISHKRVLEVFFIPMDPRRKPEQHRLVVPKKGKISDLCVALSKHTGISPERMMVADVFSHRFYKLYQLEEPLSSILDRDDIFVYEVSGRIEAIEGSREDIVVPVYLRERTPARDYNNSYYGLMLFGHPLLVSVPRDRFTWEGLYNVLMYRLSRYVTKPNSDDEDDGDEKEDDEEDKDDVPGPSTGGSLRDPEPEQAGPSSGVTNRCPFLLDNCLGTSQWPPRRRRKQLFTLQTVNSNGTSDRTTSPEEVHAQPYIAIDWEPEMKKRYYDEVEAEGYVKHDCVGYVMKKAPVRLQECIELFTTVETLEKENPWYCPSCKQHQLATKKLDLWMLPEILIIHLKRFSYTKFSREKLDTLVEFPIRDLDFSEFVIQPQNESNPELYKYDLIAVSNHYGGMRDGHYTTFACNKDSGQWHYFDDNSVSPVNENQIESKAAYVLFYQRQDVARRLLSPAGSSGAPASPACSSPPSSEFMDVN", "UniProt P17844": "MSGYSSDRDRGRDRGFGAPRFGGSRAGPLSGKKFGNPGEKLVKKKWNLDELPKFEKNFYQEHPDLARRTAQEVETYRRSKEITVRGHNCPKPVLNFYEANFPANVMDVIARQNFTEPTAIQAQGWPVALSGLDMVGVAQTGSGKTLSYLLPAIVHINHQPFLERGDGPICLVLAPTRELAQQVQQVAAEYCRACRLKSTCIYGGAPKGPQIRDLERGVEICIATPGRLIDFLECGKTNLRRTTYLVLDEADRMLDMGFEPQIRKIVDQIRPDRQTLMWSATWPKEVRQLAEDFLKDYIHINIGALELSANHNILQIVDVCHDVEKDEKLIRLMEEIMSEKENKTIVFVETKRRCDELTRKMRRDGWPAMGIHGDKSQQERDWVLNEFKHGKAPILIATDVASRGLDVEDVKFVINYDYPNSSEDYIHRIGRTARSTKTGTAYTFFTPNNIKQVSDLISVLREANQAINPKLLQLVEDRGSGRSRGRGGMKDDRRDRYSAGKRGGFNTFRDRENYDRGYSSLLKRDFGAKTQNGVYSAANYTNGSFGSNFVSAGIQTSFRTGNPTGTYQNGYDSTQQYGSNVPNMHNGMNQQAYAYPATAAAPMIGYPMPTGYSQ", "UniProt P11021, residues 19-654": "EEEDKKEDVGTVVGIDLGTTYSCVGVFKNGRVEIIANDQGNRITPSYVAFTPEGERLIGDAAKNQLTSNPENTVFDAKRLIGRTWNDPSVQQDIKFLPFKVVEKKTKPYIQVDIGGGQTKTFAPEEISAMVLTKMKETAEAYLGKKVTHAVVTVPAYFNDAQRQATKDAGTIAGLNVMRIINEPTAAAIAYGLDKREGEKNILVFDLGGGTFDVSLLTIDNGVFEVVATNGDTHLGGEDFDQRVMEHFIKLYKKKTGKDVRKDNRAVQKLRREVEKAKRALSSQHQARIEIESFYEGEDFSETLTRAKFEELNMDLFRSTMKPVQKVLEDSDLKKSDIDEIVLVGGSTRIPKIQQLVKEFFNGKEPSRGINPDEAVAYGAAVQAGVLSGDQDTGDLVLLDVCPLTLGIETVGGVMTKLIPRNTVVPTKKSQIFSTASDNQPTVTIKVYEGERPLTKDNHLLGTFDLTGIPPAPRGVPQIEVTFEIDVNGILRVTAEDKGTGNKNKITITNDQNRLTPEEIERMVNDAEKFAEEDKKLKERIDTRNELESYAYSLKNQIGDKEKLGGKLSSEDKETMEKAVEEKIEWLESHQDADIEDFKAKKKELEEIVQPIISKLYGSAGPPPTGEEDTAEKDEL", "UniProt O14744": "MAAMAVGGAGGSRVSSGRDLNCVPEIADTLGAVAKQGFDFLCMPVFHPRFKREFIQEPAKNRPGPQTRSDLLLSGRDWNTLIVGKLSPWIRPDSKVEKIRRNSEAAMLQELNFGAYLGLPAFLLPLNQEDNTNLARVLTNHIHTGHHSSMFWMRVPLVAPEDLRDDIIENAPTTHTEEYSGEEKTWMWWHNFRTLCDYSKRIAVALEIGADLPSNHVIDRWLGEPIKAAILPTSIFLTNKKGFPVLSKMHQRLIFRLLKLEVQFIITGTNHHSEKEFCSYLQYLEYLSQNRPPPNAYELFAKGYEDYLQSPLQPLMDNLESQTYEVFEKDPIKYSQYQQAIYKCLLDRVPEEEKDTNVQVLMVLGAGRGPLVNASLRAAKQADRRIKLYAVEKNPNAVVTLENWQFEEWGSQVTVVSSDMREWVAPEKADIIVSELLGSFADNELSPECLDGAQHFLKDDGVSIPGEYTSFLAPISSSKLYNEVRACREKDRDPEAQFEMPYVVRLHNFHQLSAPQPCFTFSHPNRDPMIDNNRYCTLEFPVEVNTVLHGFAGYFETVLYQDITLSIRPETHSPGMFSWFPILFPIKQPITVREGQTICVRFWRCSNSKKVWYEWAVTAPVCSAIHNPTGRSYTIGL", "UniProt P0DMV8": "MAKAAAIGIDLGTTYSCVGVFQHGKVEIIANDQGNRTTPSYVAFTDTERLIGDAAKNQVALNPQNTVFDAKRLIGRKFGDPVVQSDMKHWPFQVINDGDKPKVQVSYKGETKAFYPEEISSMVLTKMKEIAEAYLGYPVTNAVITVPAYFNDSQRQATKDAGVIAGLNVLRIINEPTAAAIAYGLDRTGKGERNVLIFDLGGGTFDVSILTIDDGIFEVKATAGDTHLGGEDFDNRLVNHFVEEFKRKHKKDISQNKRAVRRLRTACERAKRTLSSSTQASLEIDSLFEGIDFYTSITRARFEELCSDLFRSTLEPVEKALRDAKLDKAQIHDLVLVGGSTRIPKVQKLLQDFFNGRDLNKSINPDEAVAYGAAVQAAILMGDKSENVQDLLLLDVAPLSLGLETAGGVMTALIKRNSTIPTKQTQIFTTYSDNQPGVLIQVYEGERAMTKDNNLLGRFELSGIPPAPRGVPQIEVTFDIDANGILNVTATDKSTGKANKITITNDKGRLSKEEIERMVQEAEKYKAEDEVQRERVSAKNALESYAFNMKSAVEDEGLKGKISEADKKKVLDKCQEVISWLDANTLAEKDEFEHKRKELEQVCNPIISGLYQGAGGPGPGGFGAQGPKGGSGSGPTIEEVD"},
  "source": "paper PMC8277857",
  "note": "No constants are given. Whether binding was seen depends on the method and setting. In cells and extracts the contact can be indirect. These calls come from enrichment with a bait or labelling near it, and not all partners need be listed.",
  "data": [
    {"target": "USP11 (immunoprecipitated from ES2 cells) (human (in ES2 cells; whether endogenous is not stated)) (UniProt P51784)", "assay": "affinity purification with mass spectrometry; immunoprecipitation of USP11 from ES2 cells, mass spectrometry of the co-precipitate", "values": [
      {"molecule": "DDX5 (from UniProt P17844 1-614)", "binding": "binds"},
      {"molecule": "BIP (in ES2 cells) (from UniProt P11021 19-654)", "binding": "binds"},
      {"molecule": "PRMT5 (from UniProt O14744 1-637)", "binding": "binds"},
      {"molecule": "HSPA1A (from UniProt P0DMV8 1-641)", "binding": "binds"},
      {"molecule": "TGM2 (protein, UniProt P21980 1-687) MAEELVLERCDLELETNGRDHHTADLCREKLVVRRGQPFWLTLHFEGRNYEASVDSLTFSVVTGPAPSQEAGTKARFPLRDAVEEGDWTATVVDQQDCTLSLQLTTPANAPIGLYRLSLEASTGYQGSSFVLGHFILLFNAWCPADAVYLDSEEERQEYVLTQQGFIYQGSAKFIKNIPWNFGQFEDGILDICLILLDVNPKFLKNAGRDCSRRSSPVYVGRVVSGMVNCNDDQGVLLGRWDNNYGDGVSPMSWIGSVDILRRWKNHGCQRVKYGQCWVFAAVACTVLRCLGIPTRVVTNYNSAHDQNSNLLIEYFRNEFGEIQGDKSEMIWNFHCWVESWMTRPDLQPGYEGWQALDPTPQEKSEGTYCCGPVPVRAIKEGDLSTKYDAPFVFAEVNADVVDWIQQDDGSVHKSINRSLIVGLKISTKSVGRDEREDITHTYKYPEGSSEEREAFTRANHLNKLAEKEETGMAMRIRVGQSMNMGSDFDVFAHITNNTAEEYVCRLLLCARTVSYNGILGPECGTKYLLNLNLEPFSEKSVPLCILYEKYRDCLTESNLIKVRALLVEPVINSYLLAERDLYLENPEIKIRILGEPKQKRKLVAEVSLQNPLPVALEGCTFTVEGAGLTEEQKTVEIPDPVEAGEEVKVRMDLLPLHMGLHKLVVNFESDKLKAVKGFRNVIIGPA", "binding": "binds"}
    ]}
  ]
}
